Test results taken from paper PMC7048058.
These are yes or no findings as the source states them, for the method shown. In cells and extracts the contact can be indirect. Some results given as binding are weak or reduced against the parent protein; the word gives no strength. Tags and fused reporters may be left off the sequences shown.

Sequences of proteins named here, by UniProt entry; tags and fusion partners are left off.
UniProt P16110: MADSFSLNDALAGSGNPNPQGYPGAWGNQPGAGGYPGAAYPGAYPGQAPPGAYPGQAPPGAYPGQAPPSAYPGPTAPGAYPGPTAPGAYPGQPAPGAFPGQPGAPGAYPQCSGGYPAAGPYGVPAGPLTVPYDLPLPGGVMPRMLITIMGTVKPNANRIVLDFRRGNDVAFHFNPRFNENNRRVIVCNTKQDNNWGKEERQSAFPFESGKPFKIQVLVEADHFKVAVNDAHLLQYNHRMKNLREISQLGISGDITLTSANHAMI

Target: T1, Histone deacetylase 8 (mouse (endogenous in RAW264.7)) (UniProt Q8VH37)
T1 sequence: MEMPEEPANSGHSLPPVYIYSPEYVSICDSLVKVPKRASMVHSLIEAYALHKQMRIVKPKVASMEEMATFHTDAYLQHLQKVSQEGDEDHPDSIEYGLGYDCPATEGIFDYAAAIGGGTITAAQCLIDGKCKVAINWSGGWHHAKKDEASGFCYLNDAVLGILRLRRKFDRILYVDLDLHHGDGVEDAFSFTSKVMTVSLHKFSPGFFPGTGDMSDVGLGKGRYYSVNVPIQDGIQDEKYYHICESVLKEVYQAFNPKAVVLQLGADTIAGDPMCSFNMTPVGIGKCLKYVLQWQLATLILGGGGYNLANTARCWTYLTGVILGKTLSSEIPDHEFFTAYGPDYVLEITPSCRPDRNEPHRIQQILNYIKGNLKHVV
Assay: co-IP; RAW264.7 cell lysate (cells treated with NS, IL-4 or IL-4 and PCI-34051); anti-HDAC8 or isotype IgG overnight at 4 °C, protein A/G Sepharose beads, western blot with Gal-3 and HDAC8 antibodies

binding: binds
Substance: Galectin-3 (from UniProt P16110 1-264)
